# According to patent publication US11040986B2, “Crystalline forms of cabotegravir sodium” (Sandoz AG, priority 2017, dated 2021):
# Some of these results come from one statement about several compounds together.
# Assay: thermogravimetric analysis (TGA)
# Format: physicochemical
# Details: up to about 200° C., heated from 25 to 380° C. at 10 K/min, nitrogen
smiles,measurement,value
"C[C@H]1CO[C@@H]2Cn3cc(C(=O)NCc4ccc(F)cc4F)c(=O)c([O-])c3C(=O)N12.[Na+] [Form A, cabotegravir sodium]",mass loss (TGA),≤ 0.1 weight %
